Assay results as given in article PMC11443449, “NudCL2 is required for cytokinesis by stabilizing RCC2 with Hsp90 at the midbody” (Protein & Cell, 2024).
These are yes or no findings as the source states them, for the method shown. In cells and extracts the contact can be indirect. Some entries that bind do so weakly or less than the wild type.

Amino acid sequences for entries named in this document (tags omitted).
UniProt Q9P258: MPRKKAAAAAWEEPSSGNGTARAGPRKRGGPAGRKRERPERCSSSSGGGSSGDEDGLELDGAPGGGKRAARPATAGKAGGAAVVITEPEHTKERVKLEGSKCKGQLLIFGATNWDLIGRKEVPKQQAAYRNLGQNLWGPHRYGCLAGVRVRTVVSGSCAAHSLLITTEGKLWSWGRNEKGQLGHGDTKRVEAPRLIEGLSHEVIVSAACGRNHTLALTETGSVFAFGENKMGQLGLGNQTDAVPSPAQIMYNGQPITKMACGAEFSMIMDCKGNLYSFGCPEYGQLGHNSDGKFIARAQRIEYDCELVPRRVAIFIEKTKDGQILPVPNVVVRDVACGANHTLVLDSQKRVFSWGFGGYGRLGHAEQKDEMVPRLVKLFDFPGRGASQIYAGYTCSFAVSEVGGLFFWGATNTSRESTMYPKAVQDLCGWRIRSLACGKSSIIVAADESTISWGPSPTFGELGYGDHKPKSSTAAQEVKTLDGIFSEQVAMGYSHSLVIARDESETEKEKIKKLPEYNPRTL

How the values were obtained:
[1] = biological target: T1, NudCL2 expressed from a transfected vector (Figure 3P) (human) (UniProt Q8WVJ2); test: co-IP; cells transfected with the indicated vectors; immunoprecipitation with anti-Flag antibody; Western blot
T1 sequence: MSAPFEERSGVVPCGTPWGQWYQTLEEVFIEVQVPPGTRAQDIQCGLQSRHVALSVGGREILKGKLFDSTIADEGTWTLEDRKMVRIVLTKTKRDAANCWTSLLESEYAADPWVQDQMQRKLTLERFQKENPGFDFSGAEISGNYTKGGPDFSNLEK

[2] = biological target: T2, NudCL2 in cell lysate (human (in the paper's cell lines HEK-293, HEK-293T or HeLa; line not stated)) (UniProt Q8WVJ2); test: co-IP; in vivo, NudC family members tested with Hsp90 and RCC2 (Fig. S10A-C); legend not shown
T2 sequence: T1 sequence

[3] = biological target: T2, NudCL2 in cell lysate (human (in the paper's cell lines HEK-293, HEK-293T or HeLa; line not stated)); test: co-IP; cells lysed in TBSN buffer (20 mmol/L Tris pH 8.0, 150 mmol/L NaCl, 0.5% Nonidet P-40, 5 mmol/L EGTA, 1.5 mmol/L EDTA); immunoprecipitation with the indicated antibodies; Western blot

Row | binding [1] | binding [2] | binding [3] | Substance
1 | binds | – | – | RCC2 expressed from a transfected vector (Figure 3P) (from UniProt Q9P258 1-522)
2 | – | binds | binds | RCC2 in cell lysate (from UniProt Q9P258 1-522)
